# Results deposited as PubChem BioAssay AID1259254 (NCATS, 2017)
# Screen: 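Gene knock-downs that lead to re-replication, shown by excess G2 DNA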 (primary screen)
# System: human HCT116 colorectal cancer cells
# Reagents: single siRNA against human genes
# Timing: 3 days
# Read-out: 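Imaged Hoechst DNA stain sorts each cell into a cycle phase by DNA amount; per plate, G2 fraction set to 0% for non-targeting and 100% for GMNN siRNA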
# Direction: G2 robust z-score and G2 cells, % of GMNN control: higher = more G2 cells, more excess DNA replication
# Rule for the call: 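An siRNA counts as active if its G2 robust z-score lies at least 5 MADs above the screen median; here such calls match roughly 38% of GMNN control or more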
# Shown is a random part of about 59,000 reagents. About 1,550 of all reagents (2.6%) count as active. 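G2 share is only a proxy for re-replication; each gene was hit by three separate siRNAs, and active genes were retested.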 Reagents against one gene are numbered here. Further read-outs or replicates are left out here. Reagent sequences are not shown. The record does not give: the amount of reagent.
gene,reagent no.,G2 robust z-score,"G2 cells, % of GMNN control",outcome
SMARCAL1 (SNF2 related chromatin remodeling annealing helicase 1),1,0.176,4.21,inactive
SMARCAL1 (SNF2 related chromatin remodeling annealing helicase 1),2,0.669,7.68,inactive
SMARCAL1 (SNF2 related chromatin remodeling annealing helicase 1),3,5.39,40.9,active
OR6C70 (olfactory receptor family 6 subfamily C member 70),1,-0.508,-0.608,inactive
OR6C70 (olfactory receptor family 6 subfamily C member 70),2,-0.569,-1.04,inactive
OR6C70 (olfactory receptor family 6 subfamily C member 70),3,0.164,4.12,inactive
PYDC2 (pyrin domain containing 2),1,-0.41,0.085,inactive
PYDC2 (pyrin domain containing 2),2,0.303,5.1,inactive
PYDC2 (pyrin domain containing 2),3,1.14,11,inactive
ZNF829 (zinc finger protein 829),1,1.73,15.1,inactive
ZNF829 (zinc finger protein 829),2,0.201,4.38,inactive
ZNF829 (zinc finger protein 829),3,0.445,6.1,inactive
VAPB (VAMP associated protein B and C),1,-0.386,0.248,inactive
VAPB (VAMP associated protein B and C),2,0.442,6.08,inactive
VAPB (VAMP associated protein B and C),3,0.354,5.46,inactive
ANGEL2 (angel homolog 2),1,-0.756,-2.35,inactive
ANGEL2 (angel homolog 2),2,-0.869,-3.14,inactive
ANGEL2 (angel homolog 2),3,2.89,23.3,inactive
PIGQ (phosphatidylinositol glycan anchor biosynthesis class Q),1,-0.437,-0.109,inactive
PIGQ (phosphatidylinositol glycan anchor biosynthesis class Q),2,-0.594,-1.21,inactive
PIGQ (phosphatidylinositol glycan anchor biosynthesis class Q),3,-0.263,1.12,inactive
NDUFB3 (NADH:ubiquinone oxidoreductase subunit B3),1,-1.01,-4.11,inactive
NDUFB3 (NADH:ubiquinone oxidoreductase subunit B3),2,-0.657,-1.65,inactive
NDUFB3 (NADH:ubiquinone oxidoreductase subunit B3),3,0.836,8.85,inactive
PABPC1 (poly(A) binding protein cytoplasmic 1),1,1.22,11.5,inactive
PABPC1 (poly(A) binding protein cytoplasmic 1),2,0.881,9.17,inactive
PABPC1 (poly(A) binding protein cytoplasmic 1),3,0.453,6.15,inactive
ZBTB8OSP2,1,-0.374,0.339,inactive
ZBTB8OSP2,2,-0.282,0.981,inactive
ZBTB8OSP2,3,-0.715,-2.06,inactive
TAGLN3 (transgelin 3),1,-0.819,-2.79,inactive
TAGLN3 (transgelin 3),2,0.962,9.74,inactive
TAGLN3 (transgelin 3),3,0.232,4.6,inactive
PYM1 (PYM1 exon junction complex associated factor),1,0.267,4.84,inactive
PYM1 (PYM1 exon junction complex associated factor),2,-1.13,-4.96,inactive
PYM1 (PYM1 exon junction complex associated factor),3,-0.85,-3.02,inactive
PAX4 (paired box 4),1,0.602,7.2,inactive
PAX4 (paired box 4),2,-1.05,-4.41,inactive
PAX4 (paired box 4),3,0.273,4.89,inactive
PAXIP1 (PAX interacting protein 1),1,-0.853,-3.03,inactive
PAXIP1 (PAX interacting protein 1),2,0.938,9.57,inactive
PAXIP1 (PAX interacting protein 1),3,0.826,8.78,inactive
TADA2B (transcriptional adaptor 2B),1,0.992,9.95,inactive
TADA2B (transcriptional adaptor 2B),2,-0.507,-0.597,inactive
TADA2B (transcriptional adaptor 2B),3,-0.516,-0.665,inactive
SULT1A1 (sulfotransferase family 1A member 1),1,-0.357,0.458,inactive
SULT1A1 (sulfotransferase family 1A member 1),2,-0.113,2.17,inactive
SULT1A1 (sulfotransferase family 1A member 1),3,1.01,10.1,inactive
LPIN3 (lipin 3),1,-0.818,-2.79,inactive
LPIN3 (lipin 3),2,1.04,10.3,inactive
LPIN3 (lipin 3),3,-1.25,-5.85,inactive
ST18 (ST18 C2H2C-type zinc finger transcription factor),1,0.304,5.1,inactive
ST18 (ST18 C2H2C-type zinc finger transcription factor),2,-0.82,-2.8,inactive
ST18 (ST18 C2H2C-type zinc finger transcription factor),3,-0.986,-3.97,inactive
LRAT (lecithin retinol acyltransferase),1,3.3,26.2,inactive
LRAT (lecithin retinol acyltransferase),2,-0.738,-2.22,inactive
LRAT (lecithin retinol acyltransferase),3,0.104,3.7,inactive
FAM131C (family with sequence similarity 131 member C),1,-0.397,0.172,inactive
FAM131C (family with sequence similarity 131 member C),2,1.46,13.3,inactive
FAM131C (family with sequence similarity 131 member C),3,-0.189,1.64,inactive
ATP7A (ATPase copper transporting alpha),1,2.27,18.9,inactive
ATP7A (ATPase copper transporting alpha),2,-1.42,-7.03,inactive
ATP7A (ATPase copper transporting alpha),3,-1.01,-4.16,inactive
DDX19A (DEAD-box helicase 19A),1,-0.00433,2.94,inactive
DDX19A (DEAD-box helicase 19A),2,0.0887,3.59,inactive
DDX19A (DEAD-box helicase 19A),3,1.05,10.3,inactive
CBLL1 (Cbl proto-oncogene like 1),1,-0.684,-1.85,inactive
CBLL1 (Cbl proto-oncogene like 1),2,0.853,8.97,inactive
CBLL1 (Cbl proto-oncogene like 1),3,1.83,15.8,inactive
PGGHG (protein-glucosylgalactosylhydroxylysine glucosidase),1,-0.439,-0.123,inactive
PGGHG (protein-glucosylgalactosylhydroxylysine glucosidase),2,4.12,31.9,inactive
PGGHG (protein-glucosylgalactosylhydroxylysine glucosidase),3,9.7,71.2,active
TMEM171 (transmembrane protein 171),1,0.276,4.91,inactive
TMEM171 (transmembrane protein 171),2,-0.28,0.995,inactive
TMEM171 (transmembrane protein 171),3,-1.25,-5.8,inactive
PPIC (peptidylprolyl isomerase C),1,-0.557,-0.953,inactive
PPIC (peptidylprolyl isomerase C),2,0.901,9.3,inactive
PPIC (peptidylprolyl isomerase C),3,0.267,4.85,inactive
ZKSCAN2 (zinc finger with KRAB and SCAN domains 2),1,-0.715,-2.06,inactive
ZKSCAN2 (zinc finger with KRAB and SCAN domains 2),2,0.26,4.8,inactive
ZKSCAN2 (zinc finger with KRAB and SCAN domains 2),3,0.192,4.32,inactive
HPSE2 (heparanase 2 (inactive)),1,0.189,4.3,inactive
HPSE2 (heparanase 2 (inactive)),2,0.74,8.17,inactive
HPSE2 (heparanase 2 (inactive)),3,-0.216,1.45,inactive
FAM238A (family with sequence similarity 238 member A),1,1.85,16,inactive
FAM238A (family with sequence similarity 238 member A),2,0.106,3.72,inactive
FAM238A (family with sequence similarity 238 member A),3,-1.13,-4.99,inactive

14 entries from above, arranged by “G2 robust z-score”, highest first.
gene,reagent no.,G2 robust z-score,"G2 cells, % of GMNN control",outcome
ANGEL2 (angel homolog 2),3,2.89,23.3,inactive
PABPC1 (poly(A) binding protein cytoplasmic 1),1,1.22,11.5,inactive
NDUFB3 (NADH:ubiquinone oxidoreductase subunit B3),3,0.836,8.85,inactive
ZNF829 (zinc finger protein 829),3,0.445,6.1,inactive
VAPB (VAMP associated protein B and C),2,0.442,6.08,inactive
VAPB (VAMP associated protein B and C),3,0.354,5.46,inactive
PIGQ (phosphatidylinositol glycan anchor biosynthesis class Q),3,-0.263,1.12,inactive
VAPB (VAMP associated protein B and C),1,-0.386,0.248,inactive
PIGQ (phosphatidylinositol glycan anchor biosynthesis class Q),1,-0.437,-0.109,inactive
PIGQ (phosphatidylinositol glycan anchor biosynthesis class Q),2,-0.594,-1.21,inactive
NDUFB3 (NADH:ubiquinone oxidoreductase subunit B3),2,-0.657,-1.65,inactive
ANGEL2 (angel homolog 2),1,-0.756,-2.35,inactive
ANGEL2 (angel homolog 2),2,-0.869,-3.14,inactive
NDUFB3 (NADH:ubiquinone oxidoreductase subunit B3),1,-1.01,-4.11,inactive
